Results: patent US8546426B2, “N-aminotetrahydroisoquinolines as anti-cancer agents” (Florida A&M University Board of Trustees, priority 2011, dated 2013)
Values after ≈ are worked out from the molar mass of the structure shown.

System: MDA-MB-231 estrogen receptor-negative breast cancer cell line
Assay: […]-GLO luminescent cell viability assay, MDA-MB-231
Assay type: cell-based
Conditions: Homo sapiens, MDA-MB-231 cells, 5000 cells/well, 72 h at 37° C.
Procedure: All the compounds are tested in three cell lines. Different concentration of compounds, ranging from about 0.01 nM to about 100,000 nM were delivered to 5×10^3 cells per well, which were then incubated for three days at 37° C., followed by CTG assay.
In this assay, the number of viable cells in culture is determined based on the quantification of ATP present, which signals the presence of metabolically active cells. Damaged cells are not detected as the ATP leaked from these cells is quickly consumed by ATPases that are also released upon damage). The amount of ATP is determined using a system based on luciferase and D-luciferin resulting in light generation.
The cell lines were plated in 13, 96 well plates at a density of 5000 cells/well in total volumes of 50 μL in phenol-red free medium and incubated for overnight.
25 μL of 40 nM estradiol should be added to all appropriate wells on the plate. […] 25 μL of stocks (containing the compounds to be tested, DMSO and phenol-red free medium) were added to cells and medium already on plate. 50 μL of medium were added to media wells, and 50 μL of mix (contain 32 mL DMSO+768 mL phenol-red free medium) to all vehicle control wells.
Luminescence results were read on TriLux Luminometer. […] Data were expressed as percentage of untreated control (i.e. treatment value-blank/vehicle value blank), mean±SE for three replications.

CC/C(=C(\c1ccccc1)c1ccc(OCCN(C)C)cc1)c1ccccc1 [Tamoxifen, reference compound]
IC50: 5.98 µg/mL (≈ 16.1 µM)
